Measurements from patent US20230201183A1, “METHODS TO […] ENHANCE MULTIPLE […] PROTEOSTASIS […] TO TREAT NEURODEGENERATION AND STORAGE DISEASES” (Northwestern University, priority 2021, published 2023).
For at least one compound, name, drawing or mass did not settle the structure.

Key:
SNCA-3X DA neurons [1] = assay: GCase maturation by western blot; format: cell-based, human; conditions: 25 uM DILT, 5 nM FTI, FTI+DILT or RyR3 KD, 2 or 4 weeks
CANX = assay: Calnexin activity by Concanavalin-A pulldown; format: cell-based, human; conditions: H4 wild-type α-syn overexpressing cells; DILT compared to vehicle
SNCA-3X DA neurons [2] = assay: α-syn levels by western blot / sequential extraction; conditions: DILT treatment alone; 2 and 8 weeks
lysosomal GCase = assay: Live-cell lysosomal GCase activity assay; format: cell-based, human; conditions: SNCA-3X DA neurons; 2 weeks
GCase = assay: In vitro whole-cell lysate GCase activity assay; format: cell-based, human; conditions: lysates of treated SNCA-3X DA neurons; 2 weeks
[3] = tested on: healthy control DA neurons; assay: GCase western blot in healthy control neurons; format: cell-based, human; conditions: 25 mM DILT for 2 weeks

In the case of `COc1ccc([C@@H]2Sc3ccccc3N(CCN(C)C)C(=O)[C@@H]2OC(C)=O)cc1` [DILT, [(2S,3S)-5-[2-(dimethylamino)ethyl]-2-(4-methoxyphenyl)-4-oxo-2,3-dihydro-1,5-benzothiazepin-3-yl]acetate], the GCase maturation (SNCA-3X DA neurons [1]) is reported as “mild improvement in maturation”, the “CANX binding activity to N-glycosylated proteins (Con-A pulldown)” value (CANX) is reported as “significantly increased” and the α-syn levels (SNCA-3X DA neurons [2]) is reported as “not changed”. The “GCase activity within lysosomes of living neurons (in situ assay)” value (lysosomal GCase) was “no change in activity”, the “GCase activity in whole cell lysates” value (GCase) was “increased GCase activity” and the “GCase protein levels and maturation” value [3] was “elevated GCase protein levels and maturation”.
